Results published in the supplement of paper PMC12823440, “Inhibitors supercharge kinase turnover through native proteolytic circuits” (Nature, 2025).
The list shows a part of the results. Hit calls seldom repeat between salt and free forms of one compound.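 Kinases were expressed as nanoluciferase fusions in K562 cells and luminescence was read every 4 h between 2 and 18 h as percent of control, DMSO set to 100% and a positive control to 0%. A time point counts as decreased when the signal drops significantly (2 sigma). The hit call is the authors' own, does not follow from the count of time points alone, and its rule is not shown.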

Sequences of proteins named here, by UniProt entry; tags and fusion partners are left off.
UniProt P21860, whole entry: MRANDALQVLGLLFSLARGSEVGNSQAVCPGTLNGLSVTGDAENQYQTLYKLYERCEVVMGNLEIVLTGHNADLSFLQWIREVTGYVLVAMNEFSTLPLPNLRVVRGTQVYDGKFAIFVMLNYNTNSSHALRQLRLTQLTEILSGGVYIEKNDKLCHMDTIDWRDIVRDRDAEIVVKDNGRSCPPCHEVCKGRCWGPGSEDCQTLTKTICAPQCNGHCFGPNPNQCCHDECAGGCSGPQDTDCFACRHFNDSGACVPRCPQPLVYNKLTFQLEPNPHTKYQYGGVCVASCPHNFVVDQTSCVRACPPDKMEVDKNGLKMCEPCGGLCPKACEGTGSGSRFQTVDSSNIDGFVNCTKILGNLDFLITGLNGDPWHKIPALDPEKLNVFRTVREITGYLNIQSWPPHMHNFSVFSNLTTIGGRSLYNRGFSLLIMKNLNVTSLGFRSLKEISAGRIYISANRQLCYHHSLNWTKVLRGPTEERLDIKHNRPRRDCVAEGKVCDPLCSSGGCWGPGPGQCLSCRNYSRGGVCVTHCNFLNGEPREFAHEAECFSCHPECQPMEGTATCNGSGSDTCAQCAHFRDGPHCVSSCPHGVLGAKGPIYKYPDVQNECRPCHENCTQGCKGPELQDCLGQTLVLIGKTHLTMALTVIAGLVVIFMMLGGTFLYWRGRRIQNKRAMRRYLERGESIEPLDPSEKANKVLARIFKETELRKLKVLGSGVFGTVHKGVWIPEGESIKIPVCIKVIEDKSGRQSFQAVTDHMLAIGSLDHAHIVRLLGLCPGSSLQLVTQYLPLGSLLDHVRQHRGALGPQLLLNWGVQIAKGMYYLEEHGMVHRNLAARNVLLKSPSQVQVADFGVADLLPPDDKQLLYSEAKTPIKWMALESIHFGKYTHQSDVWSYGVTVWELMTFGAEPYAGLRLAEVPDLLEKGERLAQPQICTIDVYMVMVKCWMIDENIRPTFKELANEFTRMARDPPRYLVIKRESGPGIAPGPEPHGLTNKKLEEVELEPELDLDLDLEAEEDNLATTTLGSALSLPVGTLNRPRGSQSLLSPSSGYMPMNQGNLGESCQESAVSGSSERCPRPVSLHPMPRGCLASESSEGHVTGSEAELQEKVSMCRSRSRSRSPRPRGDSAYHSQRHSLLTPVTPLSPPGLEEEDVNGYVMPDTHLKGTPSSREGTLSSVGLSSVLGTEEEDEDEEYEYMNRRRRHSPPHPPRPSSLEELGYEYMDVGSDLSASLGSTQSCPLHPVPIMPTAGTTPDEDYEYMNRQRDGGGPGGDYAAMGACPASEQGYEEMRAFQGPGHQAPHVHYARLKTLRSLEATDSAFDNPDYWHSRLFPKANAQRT
UniProt Q15303, whole entry R711C: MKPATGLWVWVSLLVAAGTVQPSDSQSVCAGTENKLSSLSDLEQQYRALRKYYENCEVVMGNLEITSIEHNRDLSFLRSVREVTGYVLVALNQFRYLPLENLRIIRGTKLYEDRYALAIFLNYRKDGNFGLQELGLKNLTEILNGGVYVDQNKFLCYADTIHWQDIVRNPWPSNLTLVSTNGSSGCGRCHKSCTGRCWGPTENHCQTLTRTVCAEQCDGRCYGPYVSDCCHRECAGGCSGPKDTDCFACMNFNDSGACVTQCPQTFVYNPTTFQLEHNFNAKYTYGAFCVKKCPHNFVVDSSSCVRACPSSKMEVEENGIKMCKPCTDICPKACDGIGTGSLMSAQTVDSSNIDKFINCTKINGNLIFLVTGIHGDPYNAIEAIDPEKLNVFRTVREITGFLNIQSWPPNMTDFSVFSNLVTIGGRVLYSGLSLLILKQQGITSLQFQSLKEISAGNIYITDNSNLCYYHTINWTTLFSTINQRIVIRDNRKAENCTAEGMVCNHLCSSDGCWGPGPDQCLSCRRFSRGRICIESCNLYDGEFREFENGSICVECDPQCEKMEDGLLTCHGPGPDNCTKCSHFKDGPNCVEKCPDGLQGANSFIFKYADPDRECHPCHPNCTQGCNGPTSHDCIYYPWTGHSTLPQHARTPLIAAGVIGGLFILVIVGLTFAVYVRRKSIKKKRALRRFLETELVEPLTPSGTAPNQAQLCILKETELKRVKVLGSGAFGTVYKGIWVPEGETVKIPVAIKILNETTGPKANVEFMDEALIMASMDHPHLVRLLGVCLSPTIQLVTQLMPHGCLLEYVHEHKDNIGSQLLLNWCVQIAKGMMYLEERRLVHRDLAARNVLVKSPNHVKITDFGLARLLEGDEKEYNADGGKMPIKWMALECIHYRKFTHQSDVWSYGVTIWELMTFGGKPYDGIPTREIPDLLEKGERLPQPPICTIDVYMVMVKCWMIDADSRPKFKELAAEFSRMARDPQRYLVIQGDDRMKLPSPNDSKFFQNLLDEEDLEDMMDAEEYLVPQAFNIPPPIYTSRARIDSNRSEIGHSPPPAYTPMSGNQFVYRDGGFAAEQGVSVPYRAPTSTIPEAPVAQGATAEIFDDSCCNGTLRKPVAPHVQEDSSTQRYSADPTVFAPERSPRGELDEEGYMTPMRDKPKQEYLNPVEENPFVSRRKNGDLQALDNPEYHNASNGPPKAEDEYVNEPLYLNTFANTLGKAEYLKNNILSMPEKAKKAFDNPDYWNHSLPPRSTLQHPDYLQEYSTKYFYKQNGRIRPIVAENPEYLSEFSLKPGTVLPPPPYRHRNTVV

Biological target: ERBB3 (UniProt P21860)
Experiment: kinase-Nluc reporter destabilization hit call (1 = scored as downregulated) (binary); higher = compound decreases kinase abundance
Settings: K562; 2-18 h

kinase-Nluc reporter destabilization hit call, inactive:
COc1c(O)cc(O)c2c(=O)cc(-c3ccccc3)oc12 [Wogonin] (10 µM) 0, O=C(NC[C@H](O)CO)c1ccncc1Nc1ccc(I)cc1F [Pimasertib] (10 µM) 0, N#Cc1cnc(Nc2cc(NC[C@H]3CNCCO3)c(C(F)(F)F)cn2)cn1 (10 µM) 0, CCNC(=O)Nc1ccc(-c2nc3c(c(N4CCOC[C@@H]4C)n2)CCN(C2COC2)C3)cc1 (2.5 µM) 0, COc1cc2ncnc(Nc3cc(Br)c(O)c(Br)c3)c2cc1OC (2.5 µM) 0, Nc1ccc(-c2nc3ccc(-c4nc5ccc(N)cc5[nH]4)cc3[nH]2)cc1 (10 µM) 0, CCCCC(=O)OCC(=O)[C@]1(O)Cc2c(O)c3c(c(O)c2[C@@H](O[C@H]2C[C@H](NC(=O)C(F)(F)F)[C@H](O)[C@H](C)O2)C1)C(=O)c1c(OC)cccc1C3=O [Valrubicin] (10 µM) 0, CCOC(=O)c1c(Nc2ccccc2Cl)oc(/C=C2\C=Nc3ncccc32)c1O (10 µM) 0, Nc1[nH]nc2nnc(-c3c(-c4ccccc4)nn4ccccc34)cc12 (10 µM) 0, COc1cc2nc(NC3CC3)nc(NC3CCN(C(C)C)CC3)c2cc1OC (10 µM) 0, S=C(NCc1ccc2c(c1)OCO2)N1CCN(c2ncnc3c2oc2ccccc23)CC1 [Amuvatinib] (2.5 µM) 0, CC(=O)O[C@@H]1[C@@H](OC(C)=O)[C@@H](O)[C@H](Oc2c(-c3ccc(O)cc3)oc3cc(O)cc(O)c3c2=O)O[C@H]1C (10 µM) 0, CC1=CC(=O)C(C(C)C)=C/C1=N/OC(=O)c1ccccc1C [Poloxin] (2.5 µM) 0, CO[C@@H]1[C@H](N(C)C(=O)c2ccccc2)C[C@H]2O[C@]1(C)n1c3ccccc3c3c4c(c5c6ccccc6n2c5c31)C(=O)NC4 [Midostaurin] (2.5 µM) 0, Fc1ccc(Cl)cc1-c1nc(Nc2ccncc2)c2nccnc2n1 (10 µM) 0, CN1CCC(Nc2ccc(C(=O)Nc3cc(-c4ccc5c(c4)OCO5)[nH]n3)cc2)CC1 (10 µM) 0, CN1CCC(Nc2nc(Nc3ccc(Oc4ccccc4)cc3)c3c(=O)[nH]cc(Br)c3n2)CC1 (2.5 µM) 0, O=C(COc1ccc(Cl)cc1)NC1CCC(NC(=O)COc2ccc(Cl)cc2)CC1 (stereo not drawn) [ISRIB (trans-isomer)] (10 µM) 0, Cc1ccc(C2CC(=O)NC(SCC(=O)Nc3nccs3)=C2C#N)cc1 (stereo not given) [Necrostatin-34] (10 µM) 0, CCCCNc1ncc(C(=O)NCc2ccc(-n3ccnc3)cc2)c(NC2CCC(O)CC2)n1 (stereo not given) (10 µM) 0, O=C1NC(=O)C(Cc2c[nH]c3c(Cl)cccc23)N1 (stereo not given) [Necroptosis-IN-1] (10 µM) 0, O=C1C=CC2=C3c4cc(O)c(O)cc4CC3(O)COC2=C1O (stereo not given) [Hematein] (10 µM) 0, NC(=O)c1cnc(N[C@@H]2CCCC[C@@H]2N)nc1Nc1cccc(-n2nccn2)c1 (2.5 µM) 0, COc1cc2nc(-c3cc(F)ccc3O)nc(N[C@@H]3CNC[C@H]3C(C)(C)O)c2cc1OC (2.5 µM) 0, CN1CCN(Cc2ccc(-c3cn(C4CCC(O)CC4)c4nc(NCCC5CC5)ncc34)cc2)CC1 (stereo not given) (2.5 µM) 0, O=S(=O)(c1ccc(O)cc1O)N1Cc2cc(O)cc(O)c2C1 (10 µM) 0

Biological target: ERBB4_R711C (clone: ERBB4_mut) (UniProt Q15303)
Experiment: as above
Settings: K562; 2-18 h

kinase-Nluc reporter destabilization hit call, inactive:
CC(C)Cn1ncc2cc(Oc3ccc(F)cc3F)c(C(=O)NCCN(C)C)cc21 [p38α inhibitor 1] (10 µM) 0, CNc1cc2c(Nc3cccc(Br)c3)ncnc2cn1 (10 µM) 0, CN1C(=O)[C@@H](NC(=O)c2cc(Cc3ccccc3)on2)COc2ccccc21 (10 µM) 0, CC(C1CC1)n1cnc2c(NCc3cccc(C(F)(F)F)c3)nc(NCCN(C)C)nc21 (stereo not given) (10 µM) 0, Cc1n[nH]c2ncc(C(=O)N3CCC[C@H]3c3ccc(Cl)cc3)cc12 (10 µM) 0, COc1ccc(Br)c(C=O)c1O [6-Bromo-2-hydroxy-3-methoxybenzaldehyde] (10 µM) 0, Oc1ccc(-c2cnc3ccc(NCc4ccco4)nn23)cc1 [IRAK inhibitor 2] (2.5 µM) 0, C[C@H](Nc1cc2c(-c3ccc4c(c3)OCO4)noc2cn1)c1ccccc1 (10 µM) 0, Nc1ccc(C(=O)Nc2cccc(-c3nc(N4CCOCC4)c4oc5ncccc5c4n3)c2)cn1 (10 µM) 0, CCOC(=O)c1c(N2CCc3ccc(OC)cc3C2)oc(C=C2C=Nc3ncccc32)c1O (10 µM) 0, Cc1ncc(-c2cc(F)c(O)c(F)c2)cc1-c1cc(F)c(O)c(F)c1 (10 µM) 0, N=C(NC(=N)N1CCCC1)Nc1ccc(OC(F)(F)F)cc1 (10 µM) 0, CC1(C)CN(C(=O)c2ccc(-c3cccc4nc(NC(=O)C5CC5)nn34)cc2)C1 [Solcitinib] (10 µM) 0, COc1c(O)cc(O)c2c(=O)cc(-c3ccccc3)oc12 [Wogonin] (10 µM) 0, O=C(NC[C@H](O)CO)c1ccncc1Nc1ccc(I)cc1F [Pimasertib] (10 µM) 0, N#Cc1cnc(Nc2cc(NC[C@H]3CNCCO3)c(C(F)(F)F)cn2)cn1 (10 µM) 0, CCNC(=O)Nc1ccc(-c2nc3c(c(N4CCOC[C@@H]4C)n2)CCN(C2COC2)C3)cc1 (2.5 µM) 0, COc1cc2ncnc(Nc3cc(Br)c(O)c(Br)c3)c2cc1OC (2.5 µM) 0, Nc1ccc(-c2nc3ccc(-c4nc5ccc(N)cc5[nH]4)cc3[nH]2)cc1 (10 µM) 0, CCCCC(=O)OCC(=O)[C@]1(O)Cc2c(O)c3c(c(O)c2[C@@H](O[C@H]2C[C@H](NC(=O)C(F)(F)F)[C@H](O)[C@H](C)O2)C1)C(=O)c1c(OC)cccc1C3=O [Valrubicin] (10 µM) 0, CCOC(=O)c1c(Nc2ccccc2Cl)oc(/C=C2\C=Nc3ncccc32)c1O (10 µM) 0, Nc1[nH]nc2nnc(-c3c(-c4ccccc4)nn4ccccc34)cc12 (10 µM) 0, COc1cc2nc(NC3CC3)nc(NC3CCN(C(C)C)CC3)c2cc1OC (10 µM) 0, S=C(NCc1ccc2c(c1)OCO2)N1CCN(c2ncnc3c2oc2ccccc23)CC1 [Amuvatinib] (2.5 µM) 0, CC(=O)O[C@@H]1[C@@H](OC(C)=O)[C@@H](O)[C@H](Oc2c(-c3ccc(O)cc3)oc3cc(O)cc(O)c3c2=O)O[C@H]1C (10 µM) 0, CC1=CC(=O)C(C(C)C)=C/C1=N/OC(=O)c1ccccc1C [Poloxin] (2.5 µM) 0, CO[C@@H]1[C@H](N(C)C(=O)c2ccccc2)C[C@H]2O[C@]1(C)n1c3ccccc3c3c4c(c5c6ccccc6n2c5c31)C(=O)NC4 [Midostaurin] (2.5 µM) 0, Fc1ccc(Cl)cc1-c1nc(Nc2ccncc2)c2nccnc2n1 (10 µM) 0, CN1CCC(Nc2ccc(C(=O)Nc3cc(-c4ccc5c(c4)OCO5)[nH]n3)cc2)CC1 (10 µM) 0, CN1CCC(Nc2nc(Nc3ccc(Oc4ccccc4)cc3)c3c(=O)[nH]cc(Br)c3n2)CC1 (2.5 µM) 0, O=C(COc1ccc(Cl)cc1)NC1CCC(NC(=O)COc2ccc(Cl)cc2)CC1 (stereo not drawn) [ISRIB (trans-isomer)] (10 µM) 0, Cc1ccc(C2CC(=O)NC(SCC(=O)Nc3nccs3)=C2C#N)cc1 (stereo not given) [Necrostatin-34] (10 µM) 0, CCCCNc1ncc(C(=O)NCc2ccc(-n3ccnc3)cc2)c(NC2CCC(O)CC2)n1 (stereo not given) (10 µM) 0, O=C1NC(=O)C(Cc2c[nH]c3c(Cl)cccc23)N1 (stereo not given) [Necroptosis-IN-1] (10 µM) 0, O=C1C=CC2=C3c4cc(O)c(O)cc4CC3(O)COC2=C1O (stereo not given) [Hematein] (10 µM) 0, NC(=O)c1cnc(N[C@@H]2CCCC[C@@H]2N)nc1Nc1cccc(-n2nccn2)c1 (2.5 µM) 0, COc1cc2nc(-c3cc(F)ccc3O)nc(N[C@@H]3CNC[C@H]3C(C)(C)O)c2cc1OC (2.5 µM) 0, CN1CCN(Cc2ccc(-c3cn(C4CCC(O)CC4)c4nc(NCCC5CC5)ncc34)cc2)CC1 (stereo not given) (2.5 µM) 0, O=S(=O)(c1ccc(O)cc1O)N1Cc2cc(O)cc(O)c2C1 (10 µM) 0
